Assay results reported in article PMC3819306 (PLoS ONE, 2013).

Experiment: general procedure: Fmoc solid-phase peptide synthesis; Rink amide resin; HBTU, HOBt, DIEA
Settings: whole synthesis; for crude HPLC purity / final HPLC purity: analytical RP-HPLC

Substance: PEPTIDE1{P.L.H.S.[pT].M.[am]}$$$$V2.0
- crude HPLC purity (scale 0.048 mmol): 63%
- final HPLC purity (scale 0.048 mmol): 98%
- isolated mass (scale 0.048 mmol): 7.2 mg
- isolated yield (scale 0.048 mmol): 20%

Substance: PEPTIDE1{[BnPro].L.H.S.[pT].M.[am]}$$$$V2.0
- crude HPLC purity (scale 0.062 mmol): 79%
- final HPLC purity (scale 0.062 mmol): 98%
- isolated mass (scale 0.062 mmol): 15.4 mg
- isolated yield (scale 0.062 mmol): 25%

Substance: PEPTIDE1{[ChxAc].P.L.H.S.[pT].M.[am]}$$$$V2.0
- crude HPLC purity (scale 0.041 mmol): 75%
- final HPLC purity (scale 0.041 mmol): 98%
- isolated mass (scale 0.041 mmol): 8.6 mg
- isolated yield (scale 0.041 mmol): 24%

Substance: PEPTIDE1{[ChxMePro].L.H.S.[pT].M.[am]}$$$$V2.0
- crude HPLC purity (scale 0.061 mmol): 64%
- final HPLC purity (scale 0.061 mmol): >98%
- isolated mass (scale 0.061 mmol): 10.6 mg
- isolated yield (scale 0.061 mmol): 20%

Substance: PEPTIDE1{[ClPipPro].L.H.S.[pT].M.[am]}$$$$V2.0
- crude HPLC purity (scale 0.061 mmol): 74%
- final HPLC purity (scale 0.061 mmol): 98%
- isolated mass (scale 0.061 mmol): 13.2 mg
- isolated yield (scale 0.061 mmol): 23%

Substance: PEPTIDE1{[TMBnPro].L.H.S.[pT].M.[am]}$$$$V2.0
- crude HPLC purity (scale 0.061 mmol): 74%
- final HPLC purity (scale 0.061 mmol): >98%
- isolated mass (scale 0.061 mmol): 13.4 mg
- isolated yield (scale 0.061 mmol): 23%

Substance: PEPTIDE1{[TMBnPro].L.H.S.[pT].[am]}$$$$V2.0
- crude HPLC purity (scale 0.048 mmol): 79%
- final HPLC purity (scale 0.048 mmol): 98%
- isolated mass (scale 0.048 mmol): 9.7 mg
- isolated yield (scale 0.048 mmol): 25%

Some peptides are written in HELM: one residue between dots, names in brackets for other building blocks, links after the first $.
